“And” between values parts separate entries of the source, which are not always exact repeats. Equal entries are not always repeated. The list shows a part of the results. These are further read-outs of the screen, such as a control signal, another cell line or another target. No call is given for them. The list favours compounds with an active or inconclusive main result. Potencies come from curve fits of mixed quality, noted in brackets.
Test: qHTS Assay for Modulators of Lamin A Splicing
Conditions: HeLa LMNA splicing GFP/RFP minigene ratio, 48 h
Outline: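 S3 HeLa cells stably expressing lamin A-EGFP splicing minigene plus DsRed2, 600 cells/well, 48 h compound exposure at 37C. Laser-scanning cytometry; analysed as GFP (500-530 nm)/RFP (575-640 nm) total intensity ratio; 0.5% DMSO vehicle.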

[1] = measured here: GFP splicing reporter channel
[2] = measured here: RFP viability control channel

Structure (SMILES) | AC50 [1] | AC50 [2]
O=S1(=O)C=C(Oc2ccc3ccccc3c2)c2ccccc21 | 0.2 µM [falling, single point] | –
Cn1c(=O)n(C)c2cc(/C=C(/C#N)C(=O)NCc3ccco3)ccc21 | – | 14.1 µM [rising, single point]
COc1cc(C(=O)O/N=C(\N)Cc2ccc([N+](=O)[O-])cc2)cc(OC)c1OC | 11.2 µM [rising, partial curve] | –
Cc1cc(=O)oc2cc(OC(=O)CCN3C(=O)c4ccccc4C3=O)ccc12 | – | 0.00501 µM [falling, full curve, poor fit]
Cc1ccc(S(=O)(=O)N(CC(=O)N=Nc2c(O)[nH]c3ccccc23)c2ccc(C)c(C)c2)cc1 | 7.08 µM [rising, full curve] | 14.1 µM [rising, partial curve]
Cc1cc(=O)n2[nH]c(N)c(N=Nc3ccccc3F)c2n1 | – | 10 µM [rising, partial curve]
O=S(=O)(Cc1ccccc1)c1cnc2ccccc2n1 | 35.5 µM [falling, single point] | –
CC(C)(C)c1ccc(C(=O)NC(=S)NCc2cccnc2)cc1 | 12.6 µM [rising, single point] | 15.8 µM [rising, partial curve]
Clc1ccc([C@H](Cn2ccnc2)OCc2c(Cl)cccc2Cl)c(Cl)c1 | 0.251 µM [falling, partial curve, poor fit] | 12.6 µM [falling, single point]
Cc1cc(N2CCN(S(=O)(=O)c3ccc(Cl)cc3)CC2)c2ccccc2n1 | 7.08 µM [rising, partial curve, poor fit] | 11.2 µM [rising, single point]
COC(=O)C/C=C/[C@@H](C)[C@@H](/C=N/OC[C@@H](C)[C@H](OCc1ccccc1)C(C)C)NS(=O)(=O)c1ccc(C)cc1 | 10 µM [rising, partial curve] | 22.4 µM [rising, partial curve, poor fit]
Cn1nc([N+](=O)[O-])nc1Oc1ccccc1N | – | 12.6 µM [falling, partial curve]
CSc1ccc(/C=N/NC(=O)c2ccccc2Cl)cc1 | – | 11.2 µM [rising, single point]
CCOC(=O)c1ccc(NC(=O)Cn2nnc(-c3ccccc3F)n2)cc1 | 35.5 µM [rising, single point] | –
COc1ccc(Nc2nc(-c3cccs3)nc3ccccc23)c(OC)c1 | 25.1 µM [rising, single point] | 25.1 µM [rising, partial curve]
Fc1ccc(Nc2nc(-c3ccncc3)cs2)cc1 | 25.1 µM [falling, single point] | –
COc1cc(OC)c(-c2nn3c(-c4ccco4)nnc3s2)cc1OC | – | 11.2 µM [rising, partial curve]
CCN(CCCc1ccccc1)CCCc1ccccc1 | 14.1 µM [falling, single point] and 447 nM [falling, full curve, poor fit] | 28.2 µM [falling, partial curve, poor fit]
Cc1ccc2nc(NC(=O)CSc3nccn3-c3ccc(Cl)cc3)sc2c1 | – | 14.1 µM [falling, partial curve]
CCOC(=O)c1cc(-c2cccs2)nc2c1c(C)nn2-c1ccccn1 | 11.2 µM [falling, single point] | 12.6 µM [falling, single point]
Cc1ccc2nc(/C(C#N)=C\c3cc(C)n(-c4cccc([N+](=O)[O-])c4)c3C)[nH]c2c1 | – | 14.1 µM [rising, single point]
Cc1cc(C(=O)N/N=C2\CC(=O)CC(C)(C)C2)c(C)n1-c1ccccc1 | 22.4 µM [rising, single point] | 35.5 µM [rising, single point]
COc1ccc(/C=C/C(=O)c2c(C)nc3ccccn23)cc1 | 11.2 µM [falling, partial curve] | 35.5 µM [falling, single point]
COCCNC(=S)N/N=C(\C)c1ccc2cc(OC)ccc2c1 | 35.5 µM [rising, single point] | 31.6 µM [rising, single point]
COc1ccc(C2c3c(n[nH]c3C)CC(C)(O)C2C(C)=O)cc1OC (stereo not given) | – | 0.01 µM [falling, full curve, poor fit]
Cc1c(C)c2c(c(C)c1O)CC[C@@](C)(CCC[C@H](C)CCC[C@H](C)CCCC(C)C)O2 | – | 0.112 µM [rising, full curve, poor fit]
CCOC(=O)N1CCN(Cc2cn[nH]c2-c2cccc3ccccc23)CC1 | 0.158 µM [rising, full curve, poor fit] | 0.316 µM [rising, full curve, poor fit]

A section of the results above:
Structure (SMILES) | AC50 [1] | AC50 [2]
COC(=O)C/C=C/[C@@H](C)[C@@H](/C=N/OC[C@@H](C)[C@H](OCc1ccccc1)C(C)C)NS(=O)(=O)c1ccc(C)cc1 | 10 µM [rising, partial curve] | 22.4 µM [rising, partial curve, poor fit]
Cn1nc([N+](=O)[O-])nc1Oc1ccccc1N | – | 12.6 µM [falling, partial curve]
CSc1ccc(/C=N/NC(=O)c2ccccc2Cl)cc1 | – | 11.2 µM [rising, single point]
CCOC(=O)c1ccc(NC(=O)Cn2nnc(-c3ccccc3F)n2)cc1 | 35.5 µM [rising, single point] | –

Later entries:

Structure (SMILES) | AC50 [1] | AC50 [2]
O=C(NCc1cccnc1)NC1(C(F)(F)F)Oc2ccccc2O1 | – | 15.8 µM [rising, single point]
Cc1nc(C(=O)N(C)C)nn1-c1ccc([N+](=O)[O-])cc1 | – | 0.0224 µM [falling, full curve, poor fit]
CC(=O)N1CCCc2cc(S(=O)(=O)NC(C(=O)NC3CCCCC3)C(C)C)ccc21 (stereo not given) | 22.4 µM [rising, single point] | –
CCN(CC)S(=O)(=O)c1ccc(N2CCCC2)c(NC(=O)c2ccncc2)c1 | 35.5 µM [rising, partial curve, poor fit] | –
CN1C(=O)c2cccc3c(S(=O)(=O)NCc4ccco4)ccc1c23 | – | 28.2 µM [rising, single point]
COc1ccc(C(CNC(=O)COc2ccc(F)cc2Br)N2CCCC2)cc1 (stereo not given) | 1.41 µM [falling, partial curve] | 6.31 µM [falling, single point]
COc1cccc(-c2cc3nc4c(c(NCC(C)(C)CN(C)C)n3n2)CCCC4)c1 | 0.158 µM [rising, full curve, poor fit] | 0.0398 µM [rising, full curve, poor fit]
COc1ccc(N2C(=O)CC(SC(C)C)C2=O)cc1 (stereo not given) | – | 3.16 µM [rising, single point]
CCCOc1ccc(/C=N/NC(=S)Nc2ccccc2[N+](=O)[O-])c(O)c1 | 2.82 µM [rising, partial curve] | 10 µM [rising, partial curve]
Oc1ccc(Nc2nc(NCC3CCCO3)c3ccccc3n2)cc1 (stereo not given) | 22.4 µM [rising, partial curve, poor fit] | 22.4 µM [rising, single point]
COc1ccc(/C=C/C(=O)NC(=S)NNC(=O)c2c(-c3ccccc3)noc2C)cc1 | – | 12.6 µM [rising, single point]
O=C(c1ccc2c(c1)OCO2)N1CCN(c2ccc(Cl)cc2)CC1 | 3.55 µM [rising, full curve] | 12.6 µM [rising, partial curve]
O=C(COC(=O)c1cc([N+](=O)[O-])ccc1NCc1ccccc1Cl)NCC(F)(F)F | – | 7.94 µM [rising, partial curve, poor fit]
Cc1ccc(C(=O)CN2/C(=C(\O)c3ccccc3)C(=O)c3ccccc3S2(=O)=O)c(C)c1 | 0.00891 µM [falling, full curve, poor fit] | –
O=C1C2CCCN2C(c2ccccc2)N1c1ccc(Cl)cc1 (stereo not given) | – | 12.6 µM [rising, partial curve]
c1ccc(Nc2n[nH]nc2-c2ccccc2)cc1 | 11.2 µM [rising, partial curve, poor fit] | 5.62 µM [rising, full curve, poor fit]
O=C1S/C(=C\c2ccc(N3CCOCC3)o2)C(=O)N1Cc1ccc(F)cc1 | 35.5 µM [falling, single point] | 15.8 µM [falling, partial curve]
CCOC(=O)C1CCN(C(=O)c2ccc3c(c2)OCO3)CC1 | 5.62 µM [rising, single point] | –
COc1ccc2c(c1)CC(C(=O)NCCCN1CCN(c3cccc(Cl)c3)CC1)CO2 (stereo not given) | 10 µM [falling, partial curve] | –
COc1ccc(NC(=O)c2ccc(NCCCN3CCOCC3)c([N+](=O)[O-])c2)cc1 | – | 0.0112 µM [rising, full curve, poor fit]
COc1cc2c3c(c1)-c1c(sn(-c4cc(OC)ccc4OC)c1=S)C(C)(C)N3C(=O)C2=O | – | 35.5 µM [falling, single point]
Cc1c(C(=O)OCC(=O)c2ccc3c(c2)OCCO3)oc2ccccc12 | 11.2 µM [rising, single point] | 20 µM [rising, single point]
CCN1CCN(C(=S)Nc2cccc([N+](=O)[O-])c2)CC1 | 35.5 µM [rising, single point] | 35.5 µM [rising, single point]
O=C(Cn1c(=O)nc(-c2ccccc2)c2cc(Cl)ccc21)N1CCN(c2ccccc2F)CC1 | 0.01 µM [rising, full curve, poor fit] | –
Cc1c(Cl)cccc1NC(=S)N(Cc1cccnc1)Cc1ccccc1Cl | – | 20 µM [rising, single point]
Cc1ccc(C(NC(=O)C(C)C)c2cc([N+](=O)[O-])c3cccnc3c2O)cc1 (stereo not given) | – | 5.62 µM [rising, full curve]
CC(=O)NCCc1ccc(O)c(O)c1 | – | 5.62 µM [falling, single point]

Reference: PubChem BioAssay AID1487 (National Center for Advancing Translational Sciences (NCATS), 2009)
